Earlier results, collected in patent publication US11932845B2, “Microorganisms and methods for production of 4-hydroxybutyrate, 1,4-butanediol and related compounds” (priority 2012, dated 2024).
At least one structure is not confirmed: it was looked up by name or label, or the drawing left a doubt.

Key:
[1] = system: D(−)-lactate dehydrogenase from L. leichmanii; settings: compared with that on pyruvate; cited from earlier work
[2] = system: L(+)-lactate dehydrogenase from A. eutrophus; settings: compared with that on pyruvate; cited from earlier work
aminotransferase = settings: activity considered 100% on tyrosine; cited from earlier work

Compound	Activity (%) of D(−)-lactate dehydrogenase from L. leichmanii [1] [%]	Activity (%) of L(+)-lactate dehydrogenase from A. eutrophus [2] [%]	activity (aminotransferase) [%]
O=C(O)CC(=O)C(=O)O [Oxaloacetate]	23.1	0.0	–
N[C@@H](CC(=O)O)C(=O)O [aspartate]	–	–	30
CC(=O)C(=O)O [Pyruvate]	100.0	100.0	–
